This is one part of the list.

Chains of the proteins cited; added tags and fusions are not shown.
UniProt Q0JBA9, entry or part of it: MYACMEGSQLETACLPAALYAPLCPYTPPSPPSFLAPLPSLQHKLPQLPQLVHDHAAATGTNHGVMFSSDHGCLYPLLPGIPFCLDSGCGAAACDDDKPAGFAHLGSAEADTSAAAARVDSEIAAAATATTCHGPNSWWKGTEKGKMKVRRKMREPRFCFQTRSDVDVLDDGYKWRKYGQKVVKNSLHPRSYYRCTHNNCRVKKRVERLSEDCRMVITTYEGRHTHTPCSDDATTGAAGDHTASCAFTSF

The target in this assay is OsWRKY34 (Oryza sativa, UniProt Q0JBA9 1-250). Kind of assay: protein-binding microarray (RPBM); PBS, 2% BSA, 51.3 ng/ul salmon testes DNA, 50 uM zinc acetate, 200 nM TF, 25 C, 1 h; high values mean tight binding. Conditions: protein: recombinant; tags: N-terminal polyhistidine and DsRed monomer fusion (pET32a); label: CyDye5-dUTP incorporated in the synthesized complementary strand; 3' TTTTT single-stranded linker to array surface; dsDNA, one strand shown. In outline: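 A custom Agilent array was converted to double-stranded form by primer extension with Cy5-dUTP and blocked with 2% BSA. Protein at 200 nM in PBS with 2% BSA, salmon testes DNA and 50 µM zinc acetate was applied for 1 h at 25 °C, followed by washing. The proteins were polyhistidine–DsRed N-terminal fusions of transcription factors, expressed in E. coli BL21-CodonPlus and Ni–NTA-purified. The binding signal is per-feature fluorescence intensity (arbitrary units) from an Axon 4000B scanner.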
As for “TTTGCTTTTAGCTACGTCTTTGTTTGTTTCTAGCTACGGACGGAGTCACCTAGTGCAG”, the binding signal is 11200 fluorescence intensity (a.u.).

Turning to “AGCATGATACCCATAAGTATTTCTAGTAAAACCAATTCATCGGAGTCACCTAGTGCAG”, the binding signal was 8860 fluorescence intensity (a.u.).

As to “TCCGCCTCGGCCACGCCCAGACACGACCAACCCTGCATCCCGGAGTCACCTAGTGCAG”, the binding signal was 8680 fluorescence intensity (a.u.).

For the sequence “TCCATCTCTCTCGCTCTCTCGCTTGCTCGCCCCGCCGATTCGGAGTCACCTAGTGCAG”, the binding signal is 11500 fluorescence intensity (a.u.).

Regarding “GGGGTATAATTTGTGTCTTAGCTGATAGAATGTGCAGTTGCGGAGTCACCTAGTGCAG”, the binding signal was 9980 fluorescence intensity (a.u.).

Regarding “CCCATCTGGCGAGCAGAGCAGGGGAGGGGAAGGGATCTTGCGGAGTCACCTAGTGCAG”, the binding signal was 9910 fluorescence intensity (a.u.).

Turning to “TCAACCTCTCCCAGACGCGTCGCCCATCTCCACTTCACACCGGAGTCACCTAGTGCAG”, the binding signal is 8710 fluorescence intensity (a.u.).

Take “CATATGCTTGTGTTTTTTTTACTGTCAAGTGTCAACGTCTCGGAGTCACCTAGTGCAG”: the binding signal was 10300 fluorescence intensity (a.u.).

“GCTGCTACATTGGTGTGTTTGTTGTACTGCTGCTCGACTCCGGAGTCACCTAGTGCAG”: the binding signal is 9280 fluorescence intensity (a.u.).

In the case of “GGCCATCCGGTTGGAAAGGTTATTGGGGTAGTATCTTTTTCGGAGTCACCTAGTGCAG”, the binding signal was 12600 fluorescence intensity (a.u.).

For “GAGGGTTCATGGGGAGGGTAAAGGATGTGCCGGTTGGGAACGGAGTCACCTAGTGCAG”, the binding signal is 12100 fluorescence intensity (a.u.).

Consider “GCTCGCTACTTGTTGCCCGCCGCTGCTGCTGCCGCCATTGCGGAGTCACCTAGTGCAG”, for which the binding signal is 8670 fluorescence intensity (a.u.).

As for “TTGTTTCTGTTCATTTTTCTCTATAGTACTTGCTAGGTGACGGAGTCACCTAGTGCAG”, the binding signal is 11500 fluorescence intensity (a.u.).

“GGGCTCTATCTAGCTCGGGGCAGGGCGGGGACGACATGGACGGAGTCACCTAGTGCAG”: the binding signal is 12500 fluorescence intensity (a.u.).

For “CTCGTCATTGTTCCCATGTTTTTCTATTTCATTTCTAATTCGGAGTCACCTAGTGCAG”, the binding signal is 9350 fluorescence intensity (a.u.).

Regarding “GATTTGCTACTCTTAATCTATCGGTGTCTGATCTAATCAACGGAGTCACCTAGTGCAG”, the binding signal was 9190 fluorescence intensity (a.u.).

As to “GTGCGGCCTGGGTGGGTGCGTCTTTTCGCTTCTCCTTTTCCGGAGTCACCTAGTGCAG”, the binding signal was 13500 fluorescence intensity (a.u.).

With “TTTAAATGCCTTCGTTACCTTTACTCCGAGTGACATTCATCGGAGTCACCTAGTGCAG”, the binding signal is 9370 fluorescence intensity (a.u.).

As for “GTGTTGGTACTAGAATGCTGGTTTTAAAGTGGAGATTAGTCGGAGTCACCTAGTGCAG”, the binding signal was 9240 fluorescence intensity (a.u.).

Regarding “AATGGATCCCACACCGATTTTTCACCTTGTGTTGCCACGTCGGAGTCACCTAGTGCAG”, the binding signal is 9430 fluorescence intensity (a.u.).

For “CTTCCACGTCTCGTCGCTTCCCGCAATTTTTTCAGTCATGCGGAGTCACCTAGTGCAG”, the binding signal is 8610 fluorescence intensity (a.u.).

For the sequence “ATGTATTATCCCATCCATCCAGTACTAGATATTTATATTTCGGAGTCACCTAGTGCAG”, the binding signal was 8700 fluorescence intensity (a.u.).

As to “ACCTCCACGATTTCTCGCGCCGCCGCCGCCGCCGCCGCCGCGGAGTCACCTAGTGCAG”, the binding signal is 9420 fluorescence intensity (a.u.).

In the case of “AAGTATCCTAGCTCCGTTTTTTTAAGTACTTCCTTGTTTCCGGAGTCACCTAGTGCAG”, the binding signal was 14200 fluorescence intensity (a.u.).

Turning to “GGCAGGAAGGTGAAGAGGCAACGAGCCATGGCTAGAGGTTCGGAGTCACCTAGTGCAG”, the binding signal was 12300 fluorescence intensity (a.u.).

For the sequence “TTTGGACCACTCTTACATCCTTTATATTATCCATCTATTGCGGAGTCACCTAGTGCAG”, the binding signal was 8390 fluorescence intensity (a.u.).

Take “TCTTAGGGATGTGTTTGGCAAATGGGATATGGGAGGTGGGCGGAGTCACCTAGTGCAG”: the binding signal was 11100 fluorescence intensity (a.u.).

On to “TAGCTCCAGTATTAATTTCTTTCCATCCTCCATTTTCTTGCGGAGTCACCTAGTGCAG”, for which the binding signal was 9120 fluorescence intensity (a.u.).

As to “CCAATGTCAAATTTGTGACTTTCTCGTTACATGTTCAAGGCGGAGTCACCTAGTGCAG”, the binding signal was 8100 fluorescence intensity (a.u.).

In the case of “GCTTCACGCCTCTCCTACTGCACATTGCACCTCGAGTCCACGGAGTCACCTAGTGCAG”, the binding signal is 8220 fluorescence intensity (a.u.).

“TGTATTTCTGCATCACTTTCTATTTCATATTCTTCATTCCCGGAGTCACCTAGTGCAG”: the binding signal was 8390 fluorescence intensity (a.u.).

Take “CACTTCTCTGCAAGCTGGACGGGGTGAGGTGGGAGGGCGGCGGAGTCACCTAGTGCAG”: the binding signal is 13700 fluorescence intensity (a.u.).

Take “GACCCTACTCTGGGTTGTTACGGGCTTATTCACTTTGTGGCGGAGTCACCTAGTGCAG”: the binding signal is 9490 fluorescence intensity (a.u.).

With “GGGCTGACGGGTGGGGTCCATGTTGTTTTCCTCTTAGGCACGGAGTCACCTAGTGCAG”, the binding signal is 23000 fluorescence intensity (a.u.).

With “GTAGTTGCCGTATACCCTTCACTTCATTTAATACGTGCGGCGGAGTCACCTAGTGCAG”, the binding signal was 8020 fluorescence intensity (a.u.).

For the sequence “TACCTTAACTGGTTAATTTCTTCTGTATTTTTTTCCTTATCGGAGTCACCTAGTGCAG”, the binding signal was 8470 fluorescence intensity (a.u.).

As to “AACGAGTCCCGTCTCTAACCGTACTTCAGTCGCTTGTCTCCGGAGTCACCTAGTGCAG”, the binding signal is 10400 fluorescence intensity (a.u.).

As for “CGTTCCGTTTTTTGTATGTACTGTGCGTGTTGGGAACCGACGGAGTCACCTAGTGCAG”, the binding signal is 10300 fluorescence intensity (a.u.).

For “GGTGACTGACACGTTGGGTCGCTTCATTCCATAGTTAGGCCGGAGTCACCTAGTGCAG”, the binding signal was 8810 fluorescence intensity (a.u.).

In the case of “GCTGACATGTGGGTCCCTTTTTTATTTTTTTTACTGGCATCGGAGTCACCTAGTGCAG”, the binding signal was 8280 fluorescence intensity (a.u.).

As for “CTTCTCTCTCCGCATCCGCCTCCGCAACTGCAAACCGCTGCGGAGTCACCTAGTGCAG”, the binding signal was 10900 fluorescence intensity (a.u.).

On to “CTCTCTCTCTCTCCCAGCTGGTTCGCGCGGCCACCAAACACGGAGTCACCTAGTGCAG”, for which the binding signal is 10200 fluorescence intensity (a.u.).

For the origin of these results see paper PMC7819943, “Rice protein-binding microarrays: a tool to detect cis-acting elements near promoter regions in rice”.
